# Measured values published in PubChem BioAssay AID328 (DTP/NCI, 2004).
# The list shows only some results of the screen, not a fair sample: it covers a few groups of compounds. Not every dose and run of a compound is shown. T/C gives the treated animals as a percentage of the vehicle group. Some entries give survivors of the animals treated and no T/C: the source holds a T/C of zero for them, seemingly a mark for toxic or unscored doses. Some survivor counts are full or nearly so, which does not show that the dose was tolerated: survival well below the control is almost never listed, so the zero probably covers shortened survival too. Survivors were counted at the toxicity check, usually on the fifth day, unless a day is given; later deaths do not show. Schedules are NCI's codes, taken here to give the interval after Q, in days (D) or hours (H), and the number of doses after X. Additions like (4×) count equal records among those shown. Where survival is the endpoint, this PubChem deposit counts one and a half times the control or more as active, and values a quarter to a half above the control carry no call in these data; other NCI protocols may use other cut-offs. Some entries hold several experiments; the values are given in rising order. Some entries show no survivor count and are marked so; the dose need not have been tolerated. Some T/C values carry the count of animals alive at the toxicity check (mostly the fifth day); where neither a count nor a note follows, no animal had died by that day.
# Test system: BDF1 mice, P388 leukemia ip, median survival T/C
# Assay: NCI In Vivo Anticancer Drug Screen. Data for tumor model P388 Leukemia (intraperitoneal) in B6D2F1 (BDF1) mice
# Details: T/C endpoint: median survival time, higher T/C = longer survival
# How it was run: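 Antitumour effect was judged in vivo: survival in drug-treated mice, normalised to that of vehicle-dosed controls, gives the reported T/C.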
# [1] = dose: 6.0 mg/kg/injection, schedule: Q01DX009 (ip), vehicle: saline
# [2] = dose: 20.0 mg/kg/injection, schedule: Q04DX003 (ip), vehicle: saline
# [3] = dose: 12.5 mg/kg/injection, schedule: Q01DX009 (ip), vehicle: saline with Tween-80
# [4] = dose: 25.0 mg/kg/injection, schedule: Q01DX009 (ip), vehicle: saline with Tween-80
# [5] = dose: 50.0 mg/kg/injection, schedule: Q01DX009 (ip), vehicle: saline with Tween-80
# [6] = dose: 100.0 mg/kg/injection, schedule: Q01DX009 (ip), vehicle: saline with Tween-80
# [7] = dose: 100.0 mg/kg/injection, schedule: Q04DX003 (ip), vehicle: saline with Tween-80
# [8] = dose: 200.0 mg/kg/injection, schedule: Q04DX003 (ip), vehicle: saline with Tween-80
# [9] = dose: 10.0 mg/kg/injection, schedule: Q04DX003 (ip), vehicle: saline
# [10] = dose: 25.0 mg/kg/injection, schedule: Q01DX009 (ip), vehicle: saline
# [11] = dose: 200.0 mg/kg/injection, schedule: Q01DX009 (ip), vehicle: saline with Tween-80
compound,measurement,setting,value
ClCCN(CCCl)B1OCCO1,T/C,"dose: 0.37 mg/kg/injection, schedule: Q01DX005 (ip), vehicle: saline",133 % of control
same,T/C,"dose: 0.75 mg/kg/injection, schedule: Q01DX005 (ip), vehicle: saline",125 % of control
same,T/C,"dose: 1.5 mg/kg/injection, schedule: Q01DX005 (ip), vehicle: saline",150 % of control
same,T/C,"dose: 1.5 mg/kg/injection, schedule: Q01DX009 (ip), vehicle: saline",186 % of control
same,T/C,"dose: 3.0 mg/kg/injection, schedule: Q01DX009 (ip), vehicle: saline",218 % of control
same,T/C,[1],245 % of control
same,T/C,[2],113 % of control
same,T/C,"dose: 30.0 mg/kg/injection, schedule: Q04DX003 (ip), vehicle: saline",131 % of control
same,T/C,"dose: 45.0 mg/kg/injection, schedule: Q04DX003 (ip), vehicle: saline",131 % of control
same,T/C,"dose: 67.0 mg/kg/injection, schedule: Q04DX003 (ip), vehicle: saline",161 % of control
same,T/C,"dose: 100.0 mg/kg/injection, schedule: Q04DX003 (ip), vehicle: saline",159 and 196 % of control
same,T/C,"dose: 150.0 mg/kg/injection, schedule: Q04DX003 (ip), vehicle: saline",223 % of control
O=C(O)COc1ccc(N(CCCl)CCCl)cc1,T/C,"dose: 8.0 mg/kg/injection, schedule: Q01DX009 (ip), vehicle: saline with Tween-80",219 % of control
same,T/C,"dose: 8.2 mg/kg/injection, schedule: Q01DX009 (ip), vehicle: saline with Tween-80",150 % of control
same,T/C,"dose: 12.0 mg/kg/injection, schedule: Q01DX009 (ip), vehicle: saline with Tween-80",230 % of control
same,survivor count,[3],6 of 6
same,survivor count,"dose: 18.0 mg/kg/injection, schedule: Q01DX009 (ip), vehicle: saline with Tween-80",6 of 6
same,survivor count,"dose: 18.75 mg/kg/injection, schedule: Q01DX009 (ip), vehicle: saline with Tween-80",6 of 6
CCCCC(CC)CO[P+](=O)OCC(CC)CCCC (configuration not stated),T/C,[4],100 % of control
same,T/C,[5],113 % of control
same,T/C,"dose: 50.0 mg/kg/injection, schedule: Q04DX003 (ip), vehicle: saline with Tween-80",100 % of control
same,T/C,[6],104 % of control
same,T/C,[7],104 % of control
same,T/C,[8],104 % of control
N/C(=N\[N+](=O)[O-])N(CCO[N+](=O)[O-])N=O,T/C,"dose: 12.0 mg/kg/injection, schedule: Q04DX003 (ip), vehicle: saline",159 % of control [survivor count not shown]
same,T/C,"dose: 19.0 mg/kg/injection, schedule: Q04DX003 (ip), vehicle: saline",150 % of control [survivor count not shown]
same,T/C,"dose: 29.0 mg/kg/injection, schedule: Q04DX003 (ip), vehicle: saline with Tween-80",140 % of control [survivor count not shown]
same,T/C,"dose: 45.0 mg/kg/injection, schedule: Q04DX003 (ip), vehicle: saline with Tween-80",150 % of control [survivor count not shown]
same,T/C,"dose: 66.0 mg/kg/injection, schedule: Q04DX003 (ip), vehicle: saline with Tween-80",154 % of control [survivor count not shown]
same,T/C,[7],154 % of control [survivor count not shown]
same,T/C,"dose: 150.0 mg/kg/injection, schedule: Q04DX003 (ip), vehicle: saline with Tween-80",154 % of control [survivor count not shown]
O[C@H](CNCCCl)[C@H](O)CNCCCl,T/C,"dose: 5.0 mg/kg/injection, schedule: Q04DX003 (ip), vehicle: saline",187 % of control
same,T/C,"dose: 5.5 mg/kg/injection, schedule: Q01DX008 (ip), vehicle: saline",183 % of control
same,T/C,"dose: 8.3 mg/kg/injection, schedule: Q01DX008 (ip), vehicle: saline",250 % of control
same,T/C,[9],212 % of control
same,T/C,"dose: 12.5 mg/kg/injection, schedule: Q01DX008 (ip), vehicle: saline",250 % of control
same,survivor count,"dose: 12.5 mg/kg/injection, schedule: Q01DX009 (ip), vehicle: saline",6 of 6
same,T/C,"dose: 14.0 mg/kg/injection, schedule: Q04DX003 (ip), vehicle: saline",227 % of control
same,T/C,"dose: 18.7 mg/kg/injection, schedule: Q01DX008 (ip), vehicle: saline",250 % of control
same,T/C,[2],245 % of control
same,T/C,"dose: 21.0 mg/kg/injection, schedule: Q04DX003 (ip), vehicle: saline",268 % of control
same,T/C,"dose: 22.0 mg/kg/injection, schedule: Q04DX003 (ip), vehicle: saline",260 % of control
same,T/C,[10],118 % of control
same,survivor count,[10],6 of 6
same,T/C,"dose: 33.0 mg/kg/injection, schedule: Q04DX003 (ip), vehicle: saline",104 [5 of 6 alive] and 245 % of control [5 of 6 alive]
same,survivor count,"dose: 50.0 mg/kg/injection, schedule: Q01DX009 (ip), vehicle: saline",6 of 6 (2×)
same,T/C,"dose: 50.0 mg/kg/injection, schedule: Q04DX003 (ip), vehicle: saline sonified",300 % of control
same,T/C,"dose: 50.0 mg/kg/injection, schedule: Q04DX003 (ip), vehicle: saline",260 and 272 % of control
same,survivor count,"dose: 75.0 mg/kg/injection, schedule: Q04DX003 (ip), vehicle: saline",6 of 6 (2×)
same,survivor count,"dose: 100.0 mg/kg/injection, schedule: Q01DX009 (ip), vehicle: saline",4 of 6
same,T/C,"dose: 100.0 mg/kg/injection, schedule: Q04DX003 (ip), vehicle: saline sonified",135 % of control
same,survivor count,"dose: 200.0 mg/kg/injection, schedule: Q04DX003 (ip), vehicle: saline sonified",6 of 6
CCN(CC)CCOC(=O)C(O)(c1ccccc1)c1cc(C)cc(C)c1C (configuration not stated),T/C,"dose: 6.25 mg/kg/injection, schedule: Q04DX003 (ip), vehicle: Klucel (hydroxypropylcellulose) (HPC)",104 % of control
same,T/C,"dose: 12.5 mg/kg/injection, schedule: Q04DX003 (ip), vehicle: Klucel (hydroxypropylcellulose) (HPC)",95 % of control
same,T/C,"dose: 25.0 mg/kg/injection, schedule: Q04DX003 (ip), vehicle: Klucel (hydroxypropylcellulose) (HPC)",87 % of control
NCCNCCCl,T/C,[6],90 % of control
same,T/C,[11],90 % of control
ClCC[N+]1(CCCl)CCCO1,T/C,"dose: 2.66 mg/kg/injection, schedule: Q01DX009 (ip), vehicle: saline",98 % of control
same,T/C,"dose: 4.0 mg/kg/injection, schedule: Q01DX009 (ip), vehicle: saline",123 % of control
same,T/C,"dose: 4.4 mg/kg/injection, schedule: Q04DX003 (ip), vehicle: saline",100 % of control
same,T/C,[1],164 % of control
same,T/C,"dose: 6.25 mg/kg/injection, schedule: Q04DX003 (ip), vehicle: saline",140 % of control
same,T/C,"dose: 6.6 mg/kg/injection, schedule: Q04DX003 (ip), vehicle: saline",109 % of control
same,T/C,"dose: 9.0 mg/kg/injection, schedule: Q01DX009 (ip), vehicle: saline",171 % of control
same,T/C,[9],136 % of control
same,T/C,"dose: 12.5 mg/kg/injection, schedule: Q04DX003 (ip), vehicle: saline",154 % of control
same,T/C,"dose: 15.0 mg/kg/injection, schedule: Q04DX003 (ip), vehicle: saline",150 % of control
same,T/C,"dose: 16.5 mg/kg/injection, schedule: Q04DX003 (ip), vehicle: saline",143 % of control
same,T/C,"dose: 25.0 mg/kg/injection, schedule: Q04DX003 (ip), vehicle: saline",139 and 204 % of control
same,T/C,"dose: 37.5 mg/kg/injection, schedule: Q04DX003 (ip), vehicle: saline",173 % of control
COc1ccc(O)c2c(=O)c3c(OC)cc4c(c3oc12)[C@@H]1C=CO[C@@H]1O4,T/C,"dose: 6.25 mg/kg/injection, schedule: Q01DX009 (ip), vehicle: saline with Tween-80",156 % of control
same,T/C,[3],186 % of control
same,T/C,[4],199 % of control
same,T/C,[5],245 % of control
same,T/C,[6],100 % of control
CN(C)Cc1cccs1.O=[N+]([O-])c1cc([N+](=O)[O-])c(O)c([N+](=O)[O-])c1,T/C,[5],108 % of control [survivor count not shown]
same,T/C,[6],108 % of control [survivor count not shown]
same,T/C,[7],95 % of control [survivor count not shown]
same,T/C,[8],108 % of control [survivor count not shown]
CCN(CC)P1OCC(C)O1 (configuration not stated),T/C,[5],109 % of control
same,T/C,[6],100 % of control
same,T/C,[11],91 % of control
